For at least one entry, the source does not settle the construct or the ends of the probe. For part of these data: Negatives hold for the conditions tested. For part of these data: A weaker result is weaker than the reference pair of the same experiment.

Chains of the proteins cited; added tags and fusions are not shown. Chains listed by the source or under a name are the forms on record and can include a tag or linker.
GINS complex (human), one chain, as listed by the source, chain 1 of 4: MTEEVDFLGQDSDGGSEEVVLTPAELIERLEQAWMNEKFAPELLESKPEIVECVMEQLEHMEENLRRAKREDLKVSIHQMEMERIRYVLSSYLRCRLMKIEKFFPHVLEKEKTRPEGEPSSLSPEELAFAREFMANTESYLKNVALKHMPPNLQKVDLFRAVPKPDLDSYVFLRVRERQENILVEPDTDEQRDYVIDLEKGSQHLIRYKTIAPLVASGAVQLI
GINS complex (human), one chain, as listed by the source, chain 3 of 4: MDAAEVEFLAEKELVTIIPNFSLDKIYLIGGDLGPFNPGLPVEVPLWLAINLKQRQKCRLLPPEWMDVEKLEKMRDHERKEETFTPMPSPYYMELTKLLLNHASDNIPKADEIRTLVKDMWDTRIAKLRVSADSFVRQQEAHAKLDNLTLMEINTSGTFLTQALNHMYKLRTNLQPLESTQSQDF
GINS complex (human), one chain, as listed by the source, chain 4 of 4: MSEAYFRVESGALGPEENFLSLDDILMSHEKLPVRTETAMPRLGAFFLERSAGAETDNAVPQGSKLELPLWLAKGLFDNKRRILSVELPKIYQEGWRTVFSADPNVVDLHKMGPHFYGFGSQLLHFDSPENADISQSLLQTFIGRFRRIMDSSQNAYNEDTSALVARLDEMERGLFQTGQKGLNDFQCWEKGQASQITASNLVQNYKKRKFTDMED
GINS complex (human), one chain, as listed by the source, chain 2 of 4: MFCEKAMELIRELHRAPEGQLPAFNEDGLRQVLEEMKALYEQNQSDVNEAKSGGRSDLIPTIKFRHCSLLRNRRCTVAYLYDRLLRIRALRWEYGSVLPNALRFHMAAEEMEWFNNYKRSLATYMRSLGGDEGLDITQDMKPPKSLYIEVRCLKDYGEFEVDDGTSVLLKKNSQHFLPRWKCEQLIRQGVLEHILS

Common to all, as to test: EMSA
Data set [1] concerns Mcm2-7 complex (mouse). The conditions noted are these: 0.5 mM ATPgS, very weak versus Mcm4/6/7, EMSA: 25 mM Tris-HCl pH 7.5, 40 mM Na acetate, 10 mM Mg acetate, 20 mM 2-mercaptoethanol, 0.25 mg/ml BSA, 30 C 30 min, recombinant protein, protein details: Mcm7-His6, His6-Mcm4, Mcm5-His6-Flag, label: 5'-32P, single-stranded DNA. A general note: Mobility shift assays separate free from complexed probe on a gel.

For data set [2], the system named is GINS complex (human). The note with it: 0.5 mM ATPgS, 25-400 nM GINS, weak binding, EMSA: 25 mM Tris-HCl pH 7.5, 40 mM Na acetate, 10 mM Mg acetate, 20 mM 2-mercaptoethanol, 0.25 mg/ml BSA, 30 C 30 min, recombinant protein, label: 5'-32P, single-stranded DNA.
Data set [3] has as its system Mcm4/6/7 complex + GINS complex. The conditions noted are these: 0.5 mM ATPgS, GINS does not change Mcm4/6/7-DNA migration, no joint complex (Mcm4/6/7 itself binds), EMSA: 25 mM Tris-HCl pH 7.5, 40 mM Na acetate, 10 mM Mg acetate, 20 mM 2-mercaptoethanol, 0.25 mg/ml BSA, 30 C 30 min, recombinant protein, protein details: His6-Mcm4, Mcm7-Flag, label: 5'-32P, single-stranded DNA.

“CCACACATGATTTGTTTGCTCCCTGAAATGATCTATATTTAATATATAATGTATATTCCCTCGGGATTTTTTATTTTGTGTTATTCCACGGCATGAAAAACAAAAAACATTCTTCTCATCCTTGGTCCCTCA [132-mer pyrimidine-rich oligonucleotide]”: the results for the binding result in data set [1], in data set [2] and in data set [3] were “binds more weakly”, “binds more weakly” and “no binding”, respectively.
